# In article PMC11021199:
# Chains of the proteins cited; added tags and fusions are not shown. Lines headed by an entry give the natural chain unless they say otherwise; changes in a name come on top. A line that says so, or that is headed by a name, gives the form on record, which may keep a tag or linker.
# UniProt P17742: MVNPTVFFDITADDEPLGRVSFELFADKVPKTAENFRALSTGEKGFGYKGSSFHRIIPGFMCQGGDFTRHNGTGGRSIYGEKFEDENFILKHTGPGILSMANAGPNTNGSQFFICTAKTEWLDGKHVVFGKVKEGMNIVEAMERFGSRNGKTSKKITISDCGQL
# PPIA G104A mutant (IP–western in HeLa cells, Fig. 4f) (P62937, form named): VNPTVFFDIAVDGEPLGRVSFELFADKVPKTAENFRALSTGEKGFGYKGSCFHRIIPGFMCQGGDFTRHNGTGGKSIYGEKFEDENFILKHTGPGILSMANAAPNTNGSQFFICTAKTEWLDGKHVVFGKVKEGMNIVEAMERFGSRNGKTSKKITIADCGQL
# UniProt Q61937: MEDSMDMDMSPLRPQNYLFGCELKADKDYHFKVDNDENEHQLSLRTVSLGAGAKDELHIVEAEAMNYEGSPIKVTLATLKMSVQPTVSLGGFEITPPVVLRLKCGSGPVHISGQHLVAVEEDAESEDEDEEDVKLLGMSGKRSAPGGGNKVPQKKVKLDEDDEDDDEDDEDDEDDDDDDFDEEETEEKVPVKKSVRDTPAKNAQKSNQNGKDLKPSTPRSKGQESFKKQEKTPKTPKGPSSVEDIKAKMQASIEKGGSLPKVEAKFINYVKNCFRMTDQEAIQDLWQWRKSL
# UniProt P29341: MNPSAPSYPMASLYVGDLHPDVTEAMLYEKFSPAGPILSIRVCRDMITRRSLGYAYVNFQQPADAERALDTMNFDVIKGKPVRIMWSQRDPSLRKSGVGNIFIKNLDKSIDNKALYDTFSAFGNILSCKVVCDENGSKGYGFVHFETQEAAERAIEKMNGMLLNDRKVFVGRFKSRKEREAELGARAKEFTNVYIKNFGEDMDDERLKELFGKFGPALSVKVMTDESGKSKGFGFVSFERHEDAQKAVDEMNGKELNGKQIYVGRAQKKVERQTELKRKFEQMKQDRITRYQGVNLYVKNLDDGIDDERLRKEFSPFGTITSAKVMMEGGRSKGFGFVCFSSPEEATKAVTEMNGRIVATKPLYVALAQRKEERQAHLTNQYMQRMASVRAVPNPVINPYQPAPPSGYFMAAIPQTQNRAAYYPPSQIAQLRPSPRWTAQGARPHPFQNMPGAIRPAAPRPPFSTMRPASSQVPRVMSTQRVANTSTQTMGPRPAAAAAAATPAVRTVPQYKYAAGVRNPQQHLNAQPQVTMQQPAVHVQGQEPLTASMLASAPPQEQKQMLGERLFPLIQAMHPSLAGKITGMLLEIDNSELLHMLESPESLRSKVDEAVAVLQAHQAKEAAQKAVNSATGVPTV
# UniProt P06748: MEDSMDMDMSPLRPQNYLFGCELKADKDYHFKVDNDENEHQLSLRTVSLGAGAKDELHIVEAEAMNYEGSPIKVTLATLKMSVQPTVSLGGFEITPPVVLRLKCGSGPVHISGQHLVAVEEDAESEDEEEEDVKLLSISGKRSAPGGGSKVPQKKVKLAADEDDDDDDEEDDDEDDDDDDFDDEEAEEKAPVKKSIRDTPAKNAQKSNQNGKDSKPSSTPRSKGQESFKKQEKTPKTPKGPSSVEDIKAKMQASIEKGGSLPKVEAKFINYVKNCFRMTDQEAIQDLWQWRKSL
# UniProt P11940: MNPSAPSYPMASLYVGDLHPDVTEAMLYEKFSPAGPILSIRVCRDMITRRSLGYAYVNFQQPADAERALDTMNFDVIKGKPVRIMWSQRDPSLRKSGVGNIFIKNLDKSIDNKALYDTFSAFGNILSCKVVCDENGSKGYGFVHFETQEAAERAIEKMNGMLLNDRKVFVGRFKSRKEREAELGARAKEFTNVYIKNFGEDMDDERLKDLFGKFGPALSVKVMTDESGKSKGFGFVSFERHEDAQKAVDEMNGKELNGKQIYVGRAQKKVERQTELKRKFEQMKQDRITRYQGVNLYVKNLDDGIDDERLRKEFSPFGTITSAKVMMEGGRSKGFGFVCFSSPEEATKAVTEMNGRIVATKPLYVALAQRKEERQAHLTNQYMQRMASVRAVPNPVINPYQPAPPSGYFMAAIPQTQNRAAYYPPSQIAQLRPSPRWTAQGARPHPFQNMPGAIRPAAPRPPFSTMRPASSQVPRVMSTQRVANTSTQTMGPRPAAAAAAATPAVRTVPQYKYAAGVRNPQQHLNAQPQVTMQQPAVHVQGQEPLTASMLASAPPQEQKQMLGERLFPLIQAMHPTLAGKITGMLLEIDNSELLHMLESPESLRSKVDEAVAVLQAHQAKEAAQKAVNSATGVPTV
# Results are given in words; binding and its absence hold for the method and conditions named. In cells and extracts the contact can be indirect. Some entries that bind do so weakly or less than the wild type.
# Legend:
# [1] = target: PPIA (mouse, endogenous in haematopoietic stem cells) (mouse (endogenous in primary haematopoietic stem cells)) (UniProt P17742); assay: proximity ligation; Duolink PLA on fixed, permeabilised primary mouse HSCs; mouse anti-cyclophilin A with rabbit anti-PABPC1, anti-DDX6 or anti-NPM1; single-antibody staining as control
# [2] = target: PPIA G104A mutant (IP–western in HeLa cells, Fig. 4f) (UniProt P62937); assay: co-IP; IP–western in HeLa cells with PPIA wild type or G104A mutant; partners detected by western blot
binding [1],binding [2],Substance
binds,,"NPM1 (mouse, endogenous in haematopoietic stem cells) (from UniProt Q61937 1-292)"
binds,,"PABPC1 (mouse, endogenous in haematopoietic stem cells) (from UniProt P29341 1-636)"
,no binding,nucleophosmin 1 (from UniProt P06748 1-294)
,no binding,poly(A) binding protein cytoplasmic 1 (from UniProt P11940 1-636)
